From publication PMC12061250
No constants are given. Whether binding was seen depends on the method and setting. Binding seen in cells or lysates may run through a third protein. Some entries that bind do so weakly or less than the wild type.

Chains of the proteins cited; added tags and fusions are not shown. Residues count along the entry.
UniProt P49841: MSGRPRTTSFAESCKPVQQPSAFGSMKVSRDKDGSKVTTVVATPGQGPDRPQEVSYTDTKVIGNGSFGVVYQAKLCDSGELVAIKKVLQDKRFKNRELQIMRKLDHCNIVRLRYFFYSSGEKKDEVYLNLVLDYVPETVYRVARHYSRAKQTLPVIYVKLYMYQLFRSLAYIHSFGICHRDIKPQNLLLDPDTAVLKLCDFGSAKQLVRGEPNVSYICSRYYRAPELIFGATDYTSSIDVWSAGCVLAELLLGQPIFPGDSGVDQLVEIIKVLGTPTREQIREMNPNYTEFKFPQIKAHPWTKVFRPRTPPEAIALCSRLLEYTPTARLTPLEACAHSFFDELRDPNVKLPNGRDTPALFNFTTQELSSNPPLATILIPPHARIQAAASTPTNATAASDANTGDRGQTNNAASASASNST
UniProt P11021, residues 19-654: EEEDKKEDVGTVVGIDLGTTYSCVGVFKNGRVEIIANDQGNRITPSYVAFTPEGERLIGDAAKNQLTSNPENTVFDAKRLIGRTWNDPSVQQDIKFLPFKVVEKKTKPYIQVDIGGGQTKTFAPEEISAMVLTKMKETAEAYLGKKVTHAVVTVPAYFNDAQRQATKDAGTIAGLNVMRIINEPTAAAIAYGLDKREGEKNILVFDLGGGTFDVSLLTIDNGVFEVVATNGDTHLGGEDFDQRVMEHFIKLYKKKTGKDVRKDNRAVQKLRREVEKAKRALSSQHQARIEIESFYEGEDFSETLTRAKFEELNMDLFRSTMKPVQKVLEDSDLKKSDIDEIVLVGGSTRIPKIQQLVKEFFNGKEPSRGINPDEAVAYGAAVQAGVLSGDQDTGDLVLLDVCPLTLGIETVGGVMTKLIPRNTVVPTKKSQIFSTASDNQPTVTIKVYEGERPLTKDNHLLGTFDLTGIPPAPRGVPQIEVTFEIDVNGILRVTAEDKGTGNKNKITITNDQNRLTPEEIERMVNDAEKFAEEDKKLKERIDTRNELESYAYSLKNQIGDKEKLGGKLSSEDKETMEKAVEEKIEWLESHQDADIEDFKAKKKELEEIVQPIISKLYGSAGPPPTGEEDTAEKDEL

Molecular target: Glycogen synthase kinase 3β (human (endogenous in macrophages from ITP patients)) (UniProt P49841)
Assay: co-IP; macrophage lysate (ITP patients; lanes M0, M1, M2) precipitated with anti GSK-3β antibody and protein A/G magnetic beads at 4 °C overnight; western blot

binding: binds
Substance: HSPA5 (also known as GRP78 and BiP) (from UniProt P11021 19-654)
